The supplement of paper PMC7411640
Where a name gives a salt, the structure may show the parent alone. Some of the results follow. Repeats in this data set agree poorly, so a single value says little.

System: MDA-MB-468
Assay: phospho-S6 immunofluorescence (DAPI-normalised), per-plate z-score; higher = higher phospho-S6 signal (less pathway suppression)
Conditions: compound 0.1 µM; co-treatment: lapatinib 1 uM; 24 h
Description: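 GPCR-targeted compound library (MedChemExpress HY-L006) tested on MDA-MB-468 PTEN-null TNBC cells in 384-well plates at 0.1, 1 or 10 uM, combined with vehicle, GDC0941 450 nM or lapatinib 1 uM, for 24 h. Phospho-S6 (S240/244) immunofluorescence normalised to DAPI and expressed as a per-plate z-score; values are the mean of biological triplicates.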

Row | Compound | phospho-S6 immunofluorescence (z-score)
1 | CC(=O)Nc1cccc2c1c(Sc1ccc(Cl)cc1)c(C)n2CC(=O)O | -0.61
2 | COc1nc(C)nc(Cl)c1NC1=NCCN1 [Moxonidine] | 0.1
3 | CC(COc1ccccc1)N(CCCl)Cc1ccccc1 (stereo not drawn) [Phenoxybenzamine (hydrochloride)] | -1.29
4 | CC(C)COc1ccc(CNC(=O)N(Cc2ccc(F)cc2)C2CCN(C)CC2)cc1 [Pimavanserin] | -0.62
5 | c1ccc2c(c1)OCC(CN1CCCCC1)O2 (stereo not drawn) [Piperoxan (hydrochloride)] | 1.29
6 | O=C(O[C@@H]1C[C@@H]2C[C@H]3C[C@H](C1)N2CC3=O)c1c[nH]c2ccccc12 [Dolasetron (Mesylate hydrate)] | 1.19
7 | O=C1NCC2(CCN(CCc3ccccc3)CC2)O1 [Fenspiride (Hydrochloride)] | -0.71
8 | CN(C)CCc1c[nH]c2ccc(C[C@H]3COC(=O)N3)cc12 [Zolmitriptan] | -0.76
9 | Clc1ccc2c(c1)CCc1cccnc1C2=C1CCNCC1 [Desloratadine] | -0.56
10 | COc1cc2c(cc1OC)CN(C(=O)[C@@H](NCc1ccncc1)C(C)(C)C)CC2 | -0.48
11 | CN1CCCC(n2nc(Cc3ccc(Cl)cc3)c3ccccc3c2=O)CC1 (stereo not drawn) [Azelastine (hydrochloride)] | 1.32
12 | CNC(=C[N+](=O)[O-])NCCSCc1csc(CN(C)C)n1 [Nizatidine] | 1.4
13 | CN(C)CCN1C(=O)c2cccc3cc(NC(N)=O)cc(c23)C1=O | 0.53
14 | CN1CCN(C2=Nc3ccccc3Oc3ccc(Cl)cc32)CC1 [Loxapine (succinate)] | 0.59
15 | CCOc1nc2cccc(C(=O)OC(C)OC(=O)OC3CCCCC3)c2n1Cc1ccc(-c2ccccc2-c2nn[nH]n2)cc1 (stereo not drawn) [Candesartan (Cilexetil)] | 0.05
16 | Cc1nc2n(c(=O)c1CCN1CCC(c3noc4cc(F)ccc34)CC1)CCCC2O (stereo not drawn) [Paliperidone] | 0.87
17 | CCNC(=O)[C@H]1O[C@@H](n2cnc3c(N)nc(NCCc4ccc(CCC(=O)O)cc4)nc32)[C@H](O)[C@@H]1O | -0.65
18 | CC(C)(Cc1ccc2ccccc2c1)NC[C@@H](O)COc1cccc(Cl)c1C#N | -0.11
19 | CC(C)(Cc1ccc2ccccc2c1)NC[C@@H](O)COc1cccc(Cl)c1C#N [NPS-2143 (hydrochloride)] | -0.77
20 | CC(C)N(CCCCOCC(=O)NS(C)(=O)=O)c1cnc(-c2ccccc2)c(-c2ccccc2)n1 | -1.43
21 | O=C(O[C@@H]1C[C@@H]2C[C@H]3C[C@H](C1)N2CC3=O)c1c[nH]c2ccccc12 [Dolasetron] | 0.67
22 | CC(C)(C)NCC(O)c1cc(O)cc(O)c1 (stereo not drawn) [Terbutaline (sulfate)] | 1.4
23 | COc1cc(NC(=O)c2ccccn2)ccc1Cl | 0.6
24 | C[C@@H](NCCCc1cccc(C(F)(F)F)c1)c1cccc2ccccc12 [Cinacalcet (hydrochloride)] | 0.01
25 | Cc1cc2c(cc1Cl)N(C(=O)Nc1ccc(Oc3cccnc3C)nc1)CC2 | -1.35
26 | NC(=O)CC[C@H](N)C(=O)O [L-Glutamine] | -0.05
27 | O=C(c1ccc(F)cc1)N1CCC[C@H](c2nc(-c3ccc(F)cc3)no2)C1 | -1.03
28 | O=C1O[C@]2(CC[C@H](C(=O)Nc3ccn(-c4ccccc4F)n3)CC2)c2cnccc21 | -0.1

Some of the entries so far, as labelled records.
CC(COc1ccccc1)N(CCCl)Cc1ccccc1 (stereo not drawn) [Phenoxybenzamine (hydrochloride)]
  phospho-S6 immunofluorescence (z-score): -1.29
O=C(O[C@@H]1C[C@@H]2C[C@H]3C[C@H](C1)N2CC3=O)c1c[nH]c2ccccc12 [Dolasetron]
  phospho-S6 immunofluorescence (z-score): 0.67
